Assay results published in paper PMC10432269, “Diverse modes of H3K36me3-guided nucleosomal deacetylation by Rpd3S” (Nature, 2023).
These are yes or no findings as the source states them, for the method shown. Some results given as binding are weak or reduced against the parent protein; the word gives no strength. Blank lines part the entries; values can stand above or below the molecule they belong to.

Chains of the proteins cited; added tags and fusions are not shown.
UniProt P22579: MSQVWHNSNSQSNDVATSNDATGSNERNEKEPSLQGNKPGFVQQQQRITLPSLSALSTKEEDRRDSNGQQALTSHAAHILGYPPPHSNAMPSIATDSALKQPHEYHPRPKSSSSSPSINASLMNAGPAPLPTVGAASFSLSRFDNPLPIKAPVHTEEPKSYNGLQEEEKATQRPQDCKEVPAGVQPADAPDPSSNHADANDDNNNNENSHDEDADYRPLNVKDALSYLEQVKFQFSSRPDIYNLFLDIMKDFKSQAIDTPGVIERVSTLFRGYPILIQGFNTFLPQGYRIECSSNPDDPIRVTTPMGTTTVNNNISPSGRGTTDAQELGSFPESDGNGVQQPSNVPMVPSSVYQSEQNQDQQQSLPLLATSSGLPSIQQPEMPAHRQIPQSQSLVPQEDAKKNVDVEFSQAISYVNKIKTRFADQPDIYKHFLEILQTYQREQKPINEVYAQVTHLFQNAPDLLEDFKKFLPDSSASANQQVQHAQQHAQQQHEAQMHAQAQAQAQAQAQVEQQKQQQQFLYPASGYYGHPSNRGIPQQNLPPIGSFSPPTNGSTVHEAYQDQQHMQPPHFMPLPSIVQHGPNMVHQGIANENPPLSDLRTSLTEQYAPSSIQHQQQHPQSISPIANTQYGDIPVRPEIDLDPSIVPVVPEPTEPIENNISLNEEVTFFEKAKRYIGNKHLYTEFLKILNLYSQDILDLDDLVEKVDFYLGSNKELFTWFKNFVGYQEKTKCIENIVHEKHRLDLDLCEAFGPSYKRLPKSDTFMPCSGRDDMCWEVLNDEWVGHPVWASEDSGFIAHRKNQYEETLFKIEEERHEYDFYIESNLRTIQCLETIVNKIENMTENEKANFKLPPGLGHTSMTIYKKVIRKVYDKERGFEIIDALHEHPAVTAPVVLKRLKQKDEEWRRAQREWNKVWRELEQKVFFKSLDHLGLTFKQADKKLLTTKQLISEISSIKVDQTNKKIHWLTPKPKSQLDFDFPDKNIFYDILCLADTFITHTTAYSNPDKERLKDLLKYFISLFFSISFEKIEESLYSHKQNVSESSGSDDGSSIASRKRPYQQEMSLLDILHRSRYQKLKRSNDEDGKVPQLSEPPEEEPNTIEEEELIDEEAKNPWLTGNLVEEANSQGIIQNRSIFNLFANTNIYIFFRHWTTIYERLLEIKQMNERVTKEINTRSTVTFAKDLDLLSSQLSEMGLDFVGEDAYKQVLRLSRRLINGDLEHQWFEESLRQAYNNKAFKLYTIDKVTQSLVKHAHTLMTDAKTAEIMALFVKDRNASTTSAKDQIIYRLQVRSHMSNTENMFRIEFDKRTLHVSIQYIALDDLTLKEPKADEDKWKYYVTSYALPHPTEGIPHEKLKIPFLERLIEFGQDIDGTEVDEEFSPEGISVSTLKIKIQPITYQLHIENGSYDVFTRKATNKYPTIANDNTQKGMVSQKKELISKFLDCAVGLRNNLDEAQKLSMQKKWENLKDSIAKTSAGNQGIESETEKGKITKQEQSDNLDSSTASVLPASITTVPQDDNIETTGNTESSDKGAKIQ
UniProt Q12432: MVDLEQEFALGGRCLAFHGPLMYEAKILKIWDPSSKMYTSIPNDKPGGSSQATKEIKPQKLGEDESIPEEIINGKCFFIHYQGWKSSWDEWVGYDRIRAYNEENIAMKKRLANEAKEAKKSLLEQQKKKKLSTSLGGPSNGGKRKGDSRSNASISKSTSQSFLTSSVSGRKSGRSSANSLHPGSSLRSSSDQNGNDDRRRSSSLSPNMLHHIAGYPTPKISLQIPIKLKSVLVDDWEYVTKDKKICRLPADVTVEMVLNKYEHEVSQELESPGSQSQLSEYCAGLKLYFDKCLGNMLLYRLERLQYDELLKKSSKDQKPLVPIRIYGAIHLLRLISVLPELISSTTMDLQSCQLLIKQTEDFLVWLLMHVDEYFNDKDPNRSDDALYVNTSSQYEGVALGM

Experiments:
Rco1 (S. cerevisiae) [1] = biological target: T1, Rco1 (S. cerevisiae) (UniProt Q04779); test: cryo-EM structure; free Rpd3S complex, subunits co-expressed in Sf9 and purified together; stabilised by GraFix (glycerol gradient with 0.15% glutaraldehyde); 3.2 Å overall, local maps 2.7 Å and 3.2 Å; both purified
T1 sequence: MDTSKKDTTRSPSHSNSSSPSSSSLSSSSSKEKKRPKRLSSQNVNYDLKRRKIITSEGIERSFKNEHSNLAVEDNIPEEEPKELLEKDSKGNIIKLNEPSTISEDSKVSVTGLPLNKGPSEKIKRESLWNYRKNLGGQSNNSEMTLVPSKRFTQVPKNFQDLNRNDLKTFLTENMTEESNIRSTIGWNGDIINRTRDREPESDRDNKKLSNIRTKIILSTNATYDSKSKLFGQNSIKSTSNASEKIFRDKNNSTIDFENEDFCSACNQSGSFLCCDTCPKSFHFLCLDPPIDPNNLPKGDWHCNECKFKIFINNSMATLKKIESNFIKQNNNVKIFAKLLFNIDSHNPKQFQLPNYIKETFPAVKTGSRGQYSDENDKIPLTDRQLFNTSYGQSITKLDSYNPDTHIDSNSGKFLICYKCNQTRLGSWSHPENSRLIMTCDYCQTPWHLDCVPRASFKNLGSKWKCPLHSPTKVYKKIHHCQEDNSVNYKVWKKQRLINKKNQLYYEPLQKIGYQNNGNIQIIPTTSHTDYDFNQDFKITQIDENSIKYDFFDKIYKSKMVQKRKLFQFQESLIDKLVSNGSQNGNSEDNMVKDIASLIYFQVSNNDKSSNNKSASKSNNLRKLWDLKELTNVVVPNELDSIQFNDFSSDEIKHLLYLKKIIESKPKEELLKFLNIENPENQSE

Rpd3 (S. cerevisiae) = biological target: T2, Rpd3 (S. cerevisiae) (UniProt P32561); test: as above
T2 sequence: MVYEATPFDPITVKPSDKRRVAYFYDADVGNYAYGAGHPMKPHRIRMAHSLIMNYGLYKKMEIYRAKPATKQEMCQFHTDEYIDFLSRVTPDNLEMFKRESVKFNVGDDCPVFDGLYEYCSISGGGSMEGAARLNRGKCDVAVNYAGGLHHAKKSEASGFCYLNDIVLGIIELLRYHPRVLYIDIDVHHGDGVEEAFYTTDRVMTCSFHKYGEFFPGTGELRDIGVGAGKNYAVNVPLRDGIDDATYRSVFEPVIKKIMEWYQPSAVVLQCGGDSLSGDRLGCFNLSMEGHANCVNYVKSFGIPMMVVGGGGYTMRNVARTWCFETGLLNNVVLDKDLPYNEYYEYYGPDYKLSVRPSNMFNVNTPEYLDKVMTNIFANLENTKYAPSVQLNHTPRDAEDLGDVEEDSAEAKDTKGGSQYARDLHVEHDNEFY

Rco1 (S. cerevisiae) [2] = biological target: T1, Rco1 (S. cerevisiae); test: SEC; subunits co-expressed in Sf9; complex captured from the lysate on strep beads by Strep-Rco1, anion exchange, Superose 6; peak fractions on SDS-PAGE with Coomassie staining
Sin3 (S. cerevisiae) = Sin3 (S. cerevisiae) (UniProt P22579); test: cryo-EM structure; free Rpd3S complex, subunits co-expressed in Sf9 and purified together; stabilised by GraFix (glycerol gradient with 0.15% glutaraldehyde); 3.2 Å overall, local maps 2.7 Å and 3.2 Å; both purified

binding (Rco1 (S. cerevisiae) [1]): binds | binding (Rpd3 (S. cerevisiae)): binds
Molecule: Eaf3 (from UniProt Q12432 1-401)

binding (Rco1 (S. cerevisiae) [2]): binds
B1: Ume1 (protein, UniProt Q03010 1-460)
chain: MSTLDIAEDNKIKNEEFKIWKKSIPSLYQHISSLKPIFGSGVDESPSTLRSIVFTNDSSCNKSKGVLSVPLLYSQGSEIFEVDCIVPLGLHYKKPESISEPLVQPDYTMESQKVEQTVLIPKWEFKGETIAKMIYVDNSEINVKVIALSTNGSLAWFREGVKSPVYTMMEPSTSLSSASSGNQNKPCVDFAISNDSKTLTVTKEKHLDNENATIKLIDNSGKIGEVLRTIPVPGIKNIQEIKFLNNQIFATCSDDGIIRFWGNEIGKKPLWILNDSLDGKTTCFAASPFVDTLFMTGTSGGALKVWDIRAVIALGDADAELNINQGHNKVNELFKVHHFYSEQVSKIEFSSISPMEVVTIGGLGNVYHWNFEPVFAIYNEIHEDFQGIISDELEAESMAFYHTEGCRREIGENNKVNTVAYHKYIEDLVATVDSDGLLTVYKPFTGKVLDGSREVGAAKS

binding (Rpd3 (S. cerevisiae)): binds | binding (Sin3 (S. cerevisiae)): binds
B2: Rco1 (natural protein, S. cerevisiae, UniProt Q04779 1-684, looked up)
chain: T1 sequence
notes: Rco1, S. cerevisiae, full length; residues 107-565 (Rco1-A) and 262-358 (Rco1-B) are modelled in the structure; The complex was captured on strep beads by the Strep-tag of Rco1; the tag was then cleaved with TEV protease before anion exchange and SEC; Two copies (Rco1-A, Rco1-B) stand in the Rpd3S complex; also called Rco1-A; Rco1-B; not shown: Strep-tag, N-terminal, cleaved
